Measured values reported in the supplement of paper PMC12823440, “Inhibitors supercharge kinase turnover through native proteolytic circuits” (Nature, 2025).
Structures can show the parent of a compound that is named as a salt. This is one part of the list. Hit calls seldom repeat between salt and free forms of one compound.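 In K562 cells expressing nanoluciferase-fused kinases, luminescence was recorded at 4 h intervals between 2 and 18 h, normalized as percent of control with DMSO at 100% and a positive control at 0%. A significant (2 sigma) signal drop marks a time point as decreased. The authors' rule for a hit is not shown and takes in more than the number of time points.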

Chains of the proteins cited; added tags and fusions are not shown.
UniProt P29317, whole entry: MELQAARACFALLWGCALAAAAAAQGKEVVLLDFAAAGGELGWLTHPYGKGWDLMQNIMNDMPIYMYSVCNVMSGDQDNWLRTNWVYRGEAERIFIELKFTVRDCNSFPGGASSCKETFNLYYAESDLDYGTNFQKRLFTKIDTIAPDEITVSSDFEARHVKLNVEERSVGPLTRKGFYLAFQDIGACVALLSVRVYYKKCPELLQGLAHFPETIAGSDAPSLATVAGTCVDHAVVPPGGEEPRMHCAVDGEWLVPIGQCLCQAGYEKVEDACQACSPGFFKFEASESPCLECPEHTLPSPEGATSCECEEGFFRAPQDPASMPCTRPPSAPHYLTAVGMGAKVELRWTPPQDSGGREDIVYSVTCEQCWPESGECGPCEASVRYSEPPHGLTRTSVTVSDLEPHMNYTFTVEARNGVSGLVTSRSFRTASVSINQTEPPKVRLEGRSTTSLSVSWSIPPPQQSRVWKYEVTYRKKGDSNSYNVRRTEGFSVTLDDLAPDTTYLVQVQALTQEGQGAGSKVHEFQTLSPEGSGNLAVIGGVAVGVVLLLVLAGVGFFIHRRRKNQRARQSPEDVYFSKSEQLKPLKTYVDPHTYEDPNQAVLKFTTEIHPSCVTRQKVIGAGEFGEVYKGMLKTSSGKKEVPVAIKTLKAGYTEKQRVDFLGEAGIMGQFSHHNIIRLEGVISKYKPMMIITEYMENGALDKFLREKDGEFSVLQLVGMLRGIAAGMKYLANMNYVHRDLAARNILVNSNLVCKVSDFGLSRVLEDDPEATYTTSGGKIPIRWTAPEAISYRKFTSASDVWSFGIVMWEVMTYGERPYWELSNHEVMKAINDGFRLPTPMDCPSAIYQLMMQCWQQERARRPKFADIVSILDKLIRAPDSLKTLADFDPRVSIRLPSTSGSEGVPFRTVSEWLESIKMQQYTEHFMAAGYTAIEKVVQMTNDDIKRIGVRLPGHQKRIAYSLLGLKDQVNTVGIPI
UniProt P21860, whole entry: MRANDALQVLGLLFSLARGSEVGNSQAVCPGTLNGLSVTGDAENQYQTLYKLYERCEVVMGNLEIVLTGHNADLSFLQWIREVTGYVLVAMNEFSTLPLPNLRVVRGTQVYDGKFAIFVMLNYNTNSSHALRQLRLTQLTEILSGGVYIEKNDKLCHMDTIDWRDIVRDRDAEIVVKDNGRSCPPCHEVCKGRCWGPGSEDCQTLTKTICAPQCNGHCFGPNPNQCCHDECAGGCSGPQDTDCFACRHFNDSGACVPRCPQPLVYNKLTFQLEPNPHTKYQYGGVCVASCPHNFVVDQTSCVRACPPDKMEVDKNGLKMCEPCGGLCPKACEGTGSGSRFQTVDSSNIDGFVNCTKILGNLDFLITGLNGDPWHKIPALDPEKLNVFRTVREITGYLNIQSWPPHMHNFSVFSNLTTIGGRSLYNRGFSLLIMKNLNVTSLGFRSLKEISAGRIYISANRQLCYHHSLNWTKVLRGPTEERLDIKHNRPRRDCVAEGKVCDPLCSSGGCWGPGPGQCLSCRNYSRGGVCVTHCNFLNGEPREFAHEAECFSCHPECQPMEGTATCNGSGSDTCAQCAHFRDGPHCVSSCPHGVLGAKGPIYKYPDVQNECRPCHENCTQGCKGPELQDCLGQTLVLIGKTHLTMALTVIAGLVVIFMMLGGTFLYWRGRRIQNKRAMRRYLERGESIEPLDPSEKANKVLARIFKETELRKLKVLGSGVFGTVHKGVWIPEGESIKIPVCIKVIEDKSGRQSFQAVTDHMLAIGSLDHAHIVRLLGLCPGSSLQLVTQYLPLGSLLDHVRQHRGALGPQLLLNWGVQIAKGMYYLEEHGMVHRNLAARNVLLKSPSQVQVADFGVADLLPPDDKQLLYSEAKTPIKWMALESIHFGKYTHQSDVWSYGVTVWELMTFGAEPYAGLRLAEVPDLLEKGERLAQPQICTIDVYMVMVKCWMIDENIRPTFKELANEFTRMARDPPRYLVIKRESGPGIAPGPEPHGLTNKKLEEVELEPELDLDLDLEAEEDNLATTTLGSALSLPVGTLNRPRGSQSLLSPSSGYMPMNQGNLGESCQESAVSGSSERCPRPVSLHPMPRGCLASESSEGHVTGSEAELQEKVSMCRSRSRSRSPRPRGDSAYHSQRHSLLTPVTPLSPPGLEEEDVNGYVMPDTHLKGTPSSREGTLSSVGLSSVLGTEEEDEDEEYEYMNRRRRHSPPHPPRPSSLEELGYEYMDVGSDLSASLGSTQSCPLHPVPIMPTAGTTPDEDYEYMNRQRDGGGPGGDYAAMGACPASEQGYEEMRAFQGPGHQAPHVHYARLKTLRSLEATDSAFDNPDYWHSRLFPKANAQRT
UniProt Q15303, whole entry R711C: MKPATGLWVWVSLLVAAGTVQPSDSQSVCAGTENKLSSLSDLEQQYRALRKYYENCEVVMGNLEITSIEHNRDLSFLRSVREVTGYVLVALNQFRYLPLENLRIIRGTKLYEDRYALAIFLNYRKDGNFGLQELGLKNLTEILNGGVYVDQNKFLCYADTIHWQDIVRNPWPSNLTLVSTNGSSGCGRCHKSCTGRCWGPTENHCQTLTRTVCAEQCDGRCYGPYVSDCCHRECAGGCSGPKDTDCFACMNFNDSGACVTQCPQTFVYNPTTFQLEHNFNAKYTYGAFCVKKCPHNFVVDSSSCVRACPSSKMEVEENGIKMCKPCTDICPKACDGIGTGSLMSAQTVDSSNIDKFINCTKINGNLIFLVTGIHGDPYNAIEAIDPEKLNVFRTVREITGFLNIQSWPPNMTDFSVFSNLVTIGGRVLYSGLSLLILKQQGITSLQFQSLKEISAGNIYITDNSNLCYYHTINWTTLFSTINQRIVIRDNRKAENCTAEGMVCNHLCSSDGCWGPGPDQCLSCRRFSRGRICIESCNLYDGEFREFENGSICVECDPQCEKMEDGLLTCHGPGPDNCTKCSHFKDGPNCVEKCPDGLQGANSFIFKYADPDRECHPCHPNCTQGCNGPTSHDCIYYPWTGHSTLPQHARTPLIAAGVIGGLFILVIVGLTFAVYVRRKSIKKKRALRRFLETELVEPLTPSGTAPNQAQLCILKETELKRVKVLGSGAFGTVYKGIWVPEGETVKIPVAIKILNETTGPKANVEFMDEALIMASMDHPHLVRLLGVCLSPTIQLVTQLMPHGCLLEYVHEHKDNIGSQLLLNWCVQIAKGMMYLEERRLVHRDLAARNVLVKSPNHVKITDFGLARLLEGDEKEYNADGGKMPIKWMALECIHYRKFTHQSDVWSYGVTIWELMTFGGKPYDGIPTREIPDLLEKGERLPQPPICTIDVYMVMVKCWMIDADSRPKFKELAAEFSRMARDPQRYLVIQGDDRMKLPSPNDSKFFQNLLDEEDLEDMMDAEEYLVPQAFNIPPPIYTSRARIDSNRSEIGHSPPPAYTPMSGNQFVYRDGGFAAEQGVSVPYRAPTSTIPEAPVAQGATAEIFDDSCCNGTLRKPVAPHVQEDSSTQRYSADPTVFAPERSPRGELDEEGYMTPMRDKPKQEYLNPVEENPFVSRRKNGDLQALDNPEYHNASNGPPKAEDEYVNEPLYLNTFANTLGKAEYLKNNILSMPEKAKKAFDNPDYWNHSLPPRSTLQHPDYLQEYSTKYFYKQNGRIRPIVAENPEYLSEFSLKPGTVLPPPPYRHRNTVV

What was measured:
Experiment in all cases: kinase-Nluc reporter destabilization hit call (1 = scored as downregulated) (binary); higher = compound decreases kinase abundance
Conditions in all cases: K562, 2-18 h
EPHA2 = EPHA2 (UniProt P29317)
ERBB3 = ERBB3 (UniProt P21860)
[1] = molecular target: ERBB4_R711C (clone: ERBB4_mut) (UniProt Q15303)
EGFR = EGFR (UniProt P00533)
EGFR_G719S = EGFR_G719S (UniProt P00533)
EGFR_G719S_T790M = EGFR_G719S_T790M (UniProt P00533)
EGFR_L718V = EGFR_L718V (UniProt P00533)
EGFR_L858R = EGFR_L858R (UniProt P00533)
EGFR_L861Q = EGFR_L861Q (UniProt P00533)
EGFR_T790M = EGFR_T790M (UniProt P00533)

Measured: kinase-Nluc reporter destabilization hit call

CC[C@@H]1C(=O)N(C)c2cnc(Nc3ccc(C(=O)NC4CCN(C)CC4)cc3OC)nc2N1C1CCCC1
inactive: EPHA2; 10 µM 0 | ERBB3; 10 µM 0 | [1]; 10 µM 0

Cc1cnc(Nc2ccc(OCCN3CCCC3)cc2)nc1Nc1cccc(S(=O)(=O)NC(C)(C)C)c1 [Fedratinib (hydrochloride hydrate)]
inactive: EGFR; 2.5 µM 0 | EGFR_G719S; 2.5 µM 0 | EGFR_G719S_T790M; 2.5 µM 0 | EGFR_L718V; 2.5 µM 0 | EGFR_L858R; 2.5 µM 0 | EGFR_L861Q; 2.5 µM 0 | EGFR_T790M; 2.5 µM 0 | EPHA2; 2.5 µM 0 | ERBB3; 2.5 µM 0 | [1]; 2.5 µM 0

COc1cc(Nc2c(C#N)cnc3cc(OCCCN4CCN(C)CC4)c(OC)cc23)c(Cl)cc1Cl [Bosutinib]
inactive: EGFR; 2.5 µM 0 | EGFR_G719S; 2.5 µM 0 | EGFR_G719S_T790M; 2.5 µM 0 | EGFR_L718V; 2.5 µM 0 | EGFR_L858R; 2.5 µM 0 | EGFR_L861Q; 2.5 µM 0 | EGFR_T790M; 2.5 µM 0 | ERBB3; 2.5 µM 0 | [1]; 2.5 µM 0

O=C(Nc1cccc(Cl)c1)Nc1ncc(CCNc2ncnc3ccsc23)s1 [SNS-314 (mesylate)]
inactive: EPHA2; 10 µM 0 | ERBB3; 10 µM 0 | [1]; 10 µM 0

O=C(O)c1ccc(Nc2ncc3c(n2)-c2ccc(Cl)cc2C(c2c(F)cccc2F)=NC3)cc1
inactive: EGFR; 10 µM 0 | EGFR_G719S; 10 µM 0 | EGFR_G719S_T790M; 10 µM 0 | EGFR_L718V; 10 µM 0 | EGFR_L858R; 10 µM 0 | EGFR_L861Q; 10 µM 0 | EGFR_T790M; 10 µM 0 | ERBB3; 10 µM 0 | [1]; 10 µM 0

CN1CCN(c2nc(C3=C(c4c[nH]c5ccccc45)C(=O)NC3=O)c3ccccc3n2)CC1 [Sotrastaurin]
inactive: EPHA2; 2.5 µM 0 | ERBB3; 2.5 µM 0 | [1]; 2.5 µM 0
